The entries are a selection whose mix differs from that of the whole data set.
compound: COC(=O)C#Cc1ccccc1 [methyl 3-phenylpropiolate]; assay: log2 ratio of iodoacetamide-alkyne labeling of the cysteine site, DMSO over compound (competition); higher = stronger covalent engagement of the cysteine by the compound, active = 1 or more; details: 500 µM; treatment time 1 h; system: HEK293T cell lysate
In short: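 Three replicates, each with duplicate channels, were prepared from HEK293T lysate (2 mg/mL) treated with vehicle or electrophile at 500 µM for 1 h at ambient temperature. Iodoacetamide alkyne was then applied for 1 h, and samples were clicked to sCIP-TMT reagents, pooled, trypsin-digested overnight at 37 °C, enriched on streptavidin, acid-eluted and analysed on Orbitrap Eclipse LC-MS/MS with FAIMS, with FragPipe quantification. The log2 competition ratio per cysteine is the mean control-channel divided by the mean compound-channel reporter intensity. Cysteines quantified in only one replicate were left out.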

Chains of the proteins cited; added tags and fusions are not shown. Lines headed by an entry give the natural chain unless they say otherwise; changes in a name come on top.
UniProt Q6AI12: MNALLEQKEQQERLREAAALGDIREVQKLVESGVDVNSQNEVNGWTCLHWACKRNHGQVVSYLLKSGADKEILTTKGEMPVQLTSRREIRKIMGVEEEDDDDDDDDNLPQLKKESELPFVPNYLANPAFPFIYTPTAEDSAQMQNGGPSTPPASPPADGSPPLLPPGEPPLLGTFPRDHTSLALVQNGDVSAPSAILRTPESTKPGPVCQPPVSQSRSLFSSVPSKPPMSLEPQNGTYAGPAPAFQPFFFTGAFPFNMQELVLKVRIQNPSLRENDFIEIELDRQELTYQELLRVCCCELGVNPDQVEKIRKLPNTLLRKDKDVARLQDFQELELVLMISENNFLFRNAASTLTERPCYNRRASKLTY
UniProt Q6DKJ4: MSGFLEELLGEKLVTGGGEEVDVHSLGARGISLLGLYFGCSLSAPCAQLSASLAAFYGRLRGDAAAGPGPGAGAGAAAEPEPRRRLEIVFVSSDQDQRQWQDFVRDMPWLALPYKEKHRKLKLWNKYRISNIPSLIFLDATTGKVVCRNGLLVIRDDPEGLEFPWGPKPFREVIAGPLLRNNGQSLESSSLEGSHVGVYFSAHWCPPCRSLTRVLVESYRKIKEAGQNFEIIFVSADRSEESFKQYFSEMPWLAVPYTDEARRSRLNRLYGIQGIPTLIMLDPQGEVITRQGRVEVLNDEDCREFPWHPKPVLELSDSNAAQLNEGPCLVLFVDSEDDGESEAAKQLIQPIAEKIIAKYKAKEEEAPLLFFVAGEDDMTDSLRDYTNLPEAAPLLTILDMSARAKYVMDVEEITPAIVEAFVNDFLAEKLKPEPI
UniProt Q66K74: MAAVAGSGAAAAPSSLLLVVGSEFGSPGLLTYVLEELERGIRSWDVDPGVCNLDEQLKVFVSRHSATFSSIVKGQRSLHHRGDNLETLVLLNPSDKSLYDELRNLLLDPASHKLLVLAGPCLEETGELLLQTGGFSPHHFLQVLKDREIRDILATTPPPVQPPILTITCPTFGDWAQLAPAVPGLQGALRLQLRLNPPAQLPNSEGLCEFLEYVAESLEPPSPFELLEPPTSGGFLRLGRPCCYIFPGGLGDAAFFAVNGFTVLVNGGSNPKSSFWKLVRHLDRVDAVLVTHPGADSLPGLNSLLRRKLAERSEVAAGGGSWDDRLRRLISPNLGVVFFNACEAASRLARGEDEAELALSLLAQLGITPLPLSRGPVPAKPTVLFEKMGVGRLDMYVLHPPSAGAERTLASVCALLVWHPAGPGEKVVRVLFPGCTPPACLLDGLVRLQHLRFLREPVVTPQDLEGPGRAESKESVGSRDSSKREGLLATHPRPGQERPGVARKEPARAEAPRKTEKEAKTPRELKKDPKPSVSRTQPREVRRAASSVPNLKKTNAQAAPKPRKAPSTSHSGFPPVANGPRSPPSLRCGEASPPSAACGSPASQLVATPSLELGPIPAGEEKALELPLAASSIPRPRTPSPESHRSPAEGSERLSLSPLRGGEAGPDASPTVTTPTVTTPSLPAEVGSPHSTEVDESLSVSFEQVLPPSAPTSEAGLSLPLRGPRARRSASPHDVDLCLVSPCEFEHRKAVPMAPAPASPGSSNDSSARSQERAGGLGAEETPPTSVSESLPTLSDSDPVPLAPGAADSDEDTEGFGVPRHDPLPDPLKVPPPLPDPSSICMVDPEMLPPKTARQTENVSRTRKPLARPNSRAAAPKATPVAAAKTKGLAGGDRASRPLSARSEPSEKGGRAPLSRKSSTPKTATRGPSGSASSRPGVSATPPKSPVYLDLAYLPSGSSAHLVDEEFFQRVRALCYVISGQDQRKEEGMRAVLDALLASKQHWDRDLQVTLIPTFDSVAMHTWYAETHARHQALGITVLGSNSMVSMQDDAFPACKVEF
UniProt Q5UIP0: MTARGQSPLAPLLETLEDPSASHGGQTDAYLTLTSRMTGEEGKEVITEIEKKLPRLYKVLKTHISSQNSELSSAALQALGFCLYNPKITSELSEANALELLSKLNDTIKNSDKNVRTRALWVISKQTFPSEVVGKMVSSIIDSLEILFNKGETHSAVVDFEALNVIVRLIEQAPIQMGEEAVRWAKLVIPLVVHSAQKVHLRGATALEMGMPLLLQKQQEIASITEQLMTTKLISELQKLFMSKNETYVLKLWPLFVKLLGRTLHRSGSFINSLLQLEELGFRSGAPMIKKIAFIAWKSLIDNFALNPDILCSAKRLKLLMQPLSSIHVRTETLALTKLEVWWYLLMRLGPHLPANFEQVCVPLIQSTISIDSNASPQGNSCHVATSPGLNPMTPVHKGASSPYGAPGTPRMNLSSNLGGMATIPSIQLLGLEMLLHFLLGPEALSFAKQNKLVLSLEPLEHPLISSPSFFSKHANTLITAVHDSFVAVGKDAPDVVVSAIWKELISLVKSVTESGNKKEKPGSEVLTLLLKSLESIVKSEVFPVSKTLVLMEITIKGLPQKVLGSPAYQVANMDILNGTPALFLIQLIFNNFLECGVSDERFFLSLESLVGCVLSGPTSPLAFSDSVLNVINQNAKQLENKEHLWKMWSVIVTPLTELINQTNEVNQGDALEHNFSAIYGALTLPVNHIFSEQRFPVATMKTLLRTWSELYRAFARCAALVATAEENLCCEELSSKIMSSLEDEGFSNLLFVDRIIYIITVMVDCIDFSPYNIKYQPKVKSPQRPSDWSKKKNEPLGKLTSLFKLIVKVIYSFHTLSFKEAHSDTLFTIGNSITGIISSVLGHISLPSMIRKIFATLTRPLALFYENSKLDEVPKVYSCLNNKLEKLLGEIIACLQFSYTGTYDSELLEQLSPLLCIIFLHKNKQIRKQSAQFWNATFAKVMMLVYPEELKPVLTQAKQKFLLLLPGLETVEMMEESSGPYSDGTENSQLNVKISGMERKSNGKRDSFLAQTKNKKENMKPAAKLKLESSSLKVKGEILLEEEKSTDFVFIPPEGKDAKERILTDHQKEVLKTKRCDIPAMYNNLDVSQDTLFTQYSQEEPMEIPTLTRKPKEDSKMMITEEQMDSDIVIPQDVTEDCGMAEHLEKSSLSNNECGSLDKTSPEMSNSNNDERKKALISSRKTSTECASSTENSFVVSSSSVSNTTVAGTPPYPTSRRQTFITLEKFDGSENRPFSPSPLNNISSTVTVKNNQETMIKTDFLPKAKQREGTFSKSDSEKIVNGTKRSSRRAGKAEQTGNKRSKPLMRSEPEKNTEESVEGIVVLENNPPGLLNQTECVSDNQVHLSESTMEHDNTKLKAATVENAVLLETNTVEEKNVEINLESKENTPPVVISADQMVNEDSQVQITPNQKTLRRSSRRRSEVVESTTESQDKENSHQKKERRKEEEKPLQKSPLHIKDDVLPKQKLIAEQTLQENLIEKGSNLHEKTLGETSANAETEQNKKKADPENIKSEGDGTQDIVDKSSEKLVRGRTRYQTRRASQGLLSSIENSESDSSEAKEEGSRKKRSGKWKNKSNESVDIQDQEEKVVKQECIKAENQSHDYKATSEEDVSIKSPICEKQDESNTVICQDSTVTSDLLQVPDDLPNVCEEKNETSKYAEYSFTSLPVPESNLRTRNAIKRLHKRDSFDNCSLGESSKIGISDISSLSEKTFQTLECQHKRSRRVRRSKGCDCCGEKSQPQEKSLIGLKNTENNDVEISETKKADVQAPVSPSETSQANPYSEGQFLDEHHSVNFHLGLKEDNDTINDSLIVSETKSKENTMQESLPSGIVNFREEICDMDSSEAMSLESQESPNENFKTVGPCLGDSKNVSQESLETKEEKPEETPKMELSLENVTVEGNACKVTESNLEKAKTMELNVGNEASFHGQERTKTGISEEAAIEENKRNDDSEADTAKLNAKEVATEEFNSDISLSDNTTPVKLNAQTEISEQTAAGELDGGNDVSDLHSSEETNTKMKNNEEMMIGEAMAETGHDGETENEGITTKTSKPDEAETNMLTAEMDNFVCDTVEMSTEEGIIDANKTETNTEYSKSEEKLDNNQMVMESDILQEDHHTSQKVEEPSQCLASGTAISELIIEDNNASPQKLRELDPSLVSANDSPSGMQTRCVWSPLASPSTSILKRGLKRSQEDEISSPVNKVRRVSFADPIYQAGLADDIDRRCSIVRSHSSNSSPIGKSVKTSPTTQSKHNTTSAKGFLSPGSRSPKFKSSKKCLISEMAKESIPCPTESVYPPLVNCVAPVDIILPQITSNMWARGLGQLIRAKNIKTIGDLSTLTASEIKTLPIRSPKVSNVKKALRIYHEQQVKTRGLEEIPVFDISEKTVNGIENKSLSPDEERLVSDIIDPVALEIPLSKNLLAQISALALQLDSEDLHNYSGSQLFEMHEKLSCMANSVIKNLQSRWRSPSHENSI
UniProt Q5TDH0: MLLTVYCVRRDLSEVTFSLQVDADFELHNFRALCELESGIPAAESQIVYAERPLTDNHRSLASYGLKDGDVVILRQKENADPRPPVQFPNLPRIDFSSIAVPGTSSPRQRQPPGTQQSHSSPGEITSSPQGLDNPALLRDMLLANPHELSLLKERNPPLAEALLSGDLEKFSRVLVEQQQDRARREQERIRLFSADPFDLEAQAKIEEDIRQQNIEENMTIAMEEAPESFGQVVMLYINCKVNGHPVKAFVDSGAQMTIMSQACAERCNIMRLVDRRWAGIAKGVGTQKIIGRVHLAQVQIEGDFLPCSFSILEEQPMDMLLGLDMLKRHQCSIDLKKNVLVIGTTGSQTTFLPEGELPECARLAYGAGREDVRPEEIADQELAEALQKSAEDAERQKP
UniProt Q5JRX3: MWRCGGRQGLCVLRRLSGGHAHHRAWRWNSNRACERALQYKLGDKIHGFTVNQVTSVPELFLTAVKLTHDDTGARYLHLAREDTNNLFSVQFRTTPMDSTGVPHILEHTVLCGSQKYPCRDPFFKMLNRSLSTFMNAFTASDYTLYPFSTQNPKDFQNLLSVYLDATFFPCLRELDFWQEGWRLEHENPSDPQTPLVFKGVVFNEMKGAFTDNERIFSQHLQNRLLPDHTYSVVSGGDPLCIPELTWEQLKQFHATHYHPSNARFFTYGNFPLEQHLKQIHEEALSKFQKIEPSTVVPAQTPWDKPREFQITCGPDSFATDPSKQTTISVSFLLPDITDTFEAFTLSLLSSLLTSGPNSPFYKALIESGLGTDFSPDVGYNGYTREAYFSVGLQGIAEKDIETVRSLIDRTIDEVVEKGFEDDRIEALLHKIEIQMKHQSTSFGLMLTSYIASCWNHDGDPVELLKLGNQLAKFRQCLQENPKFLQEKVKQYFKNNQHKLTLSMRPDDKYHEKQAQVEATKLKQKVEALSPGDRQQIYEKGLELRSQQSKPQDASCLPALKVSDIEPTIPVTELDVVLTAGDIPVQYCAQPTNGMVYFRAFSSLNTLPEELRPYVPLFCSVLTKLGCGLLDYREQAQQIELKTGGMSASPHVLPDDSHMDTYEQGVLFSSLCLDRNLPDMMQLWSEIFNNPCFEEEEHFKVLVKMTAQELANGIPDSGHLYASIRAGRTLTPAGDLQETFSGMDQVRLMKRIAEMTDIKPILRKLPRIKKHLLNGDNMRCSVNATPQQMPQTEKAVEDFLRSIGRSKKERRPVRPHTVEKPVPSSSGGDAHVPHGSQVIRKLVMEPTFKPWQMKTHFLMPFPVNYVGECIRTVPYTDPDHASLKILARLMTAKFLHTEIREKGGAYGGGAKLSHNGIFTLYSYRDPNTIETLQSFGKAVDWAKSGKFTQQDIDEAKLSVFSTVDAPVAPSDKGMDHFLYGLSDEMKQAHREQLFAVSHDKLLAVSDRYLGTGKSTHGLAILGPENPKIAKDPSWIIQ
UniProt Q5MNZ6: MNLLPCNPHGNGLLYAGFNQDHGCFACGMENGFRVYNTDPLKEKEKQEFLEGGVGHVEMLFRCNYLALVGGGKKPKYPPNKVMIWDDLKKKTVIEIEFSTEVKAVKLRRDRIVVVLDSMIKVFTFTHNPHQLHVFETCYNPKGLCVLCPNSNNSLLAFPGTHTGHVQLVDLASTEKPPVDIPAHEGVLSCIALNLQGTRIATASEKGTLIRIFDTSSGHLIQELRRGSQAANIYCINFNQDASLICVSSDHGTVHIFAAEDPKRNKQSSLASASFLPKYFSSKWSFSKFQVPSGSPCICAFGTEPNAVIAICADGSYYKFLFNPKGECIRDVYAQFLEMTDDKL
UniProt Q6YN16: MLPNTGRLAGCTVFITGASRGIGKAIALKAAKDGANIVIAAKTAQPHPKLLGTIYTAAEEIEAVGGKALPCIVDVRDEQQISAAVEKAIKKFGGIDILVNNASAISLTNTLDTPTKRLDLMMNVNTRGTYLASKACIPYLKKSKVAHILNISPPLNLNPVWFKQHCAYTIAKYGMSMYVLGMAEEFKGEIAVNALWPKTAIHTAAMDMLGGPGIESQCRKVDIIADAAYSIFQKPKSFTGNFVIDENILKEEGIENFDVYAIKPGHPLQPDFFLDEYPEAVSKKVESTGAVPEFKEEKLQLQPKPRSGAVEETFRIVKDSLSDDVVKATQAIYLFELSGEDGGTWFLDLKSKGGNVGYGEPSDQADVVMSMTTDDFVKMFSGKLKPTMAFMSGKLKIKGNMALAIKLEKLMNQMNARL

log2 ratio of iodoacetamide-alkyne labeling, inactive:
PDE12 C108 (UniProt Q6L8Q7) 0.84, ANKRD40 C209 (UniProt Q6AI12) 0.466, UniProt Q5T280_C239 0.16, NXN C147 (UniProt Q6DKJ4) 0.326, UniProt Q6GMV3_C118 0.0568, MAP1S C51 (UniProt Q66K74) 0.5, RIF1 C1865 (UniProt Q5UIP0) 0.29, FAM91A1 C141 (UniProt Q658Y4) 0.479, DDI2 C361 (UniProt Q5TDH0) 0.232, NIPBL C661 (UniProt Q6KC79) -0.0996, DNAJC14 C537 (UniProt Q6Y2X3) 0.496, PITRM1 C313 (UniProt Q5JRX3) 0.195, PRPF8 C772 (UniProt Q6P2Q9) 0.151, UniProt Q5MNZ6_C6 0.235, HSDL2 C218 (UniProt Q6YN16) 0.323

Reference: the supplement of paper PMC11006884
